Test results as given in US20230203096A1, “EPHA4 TARGETING COMPOUNDS AND METHODS OF USE THEREOF” (priority 2020, published 2023).
Not every detail of the peptide structures is certain; ends, links or a residue may be inferred. At least one compound was matched to its structure with a doubt left.

Sequences of proteins named here, by UniProt entry; tags and fusion partners are left off. Residues count along the entry.
UniProt P54764, 29-209 C204A: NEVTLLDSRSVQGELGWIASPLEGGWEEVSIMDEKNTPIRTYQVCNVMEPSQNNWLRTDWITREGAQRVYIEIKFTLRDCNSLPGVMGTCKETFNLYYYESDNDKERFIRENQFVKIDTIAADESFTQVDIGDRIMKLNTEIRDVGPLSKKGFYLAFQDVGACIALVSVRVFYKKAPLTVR

Columns and labels:
[1] = target: T1, recombinant EphA4 ligand binding domain (Homo sapiens, UniProt P54764, C204A); assay: Isothermal titration calorimetry (ITC) against EphA4-LBD; settings: Table 2
T1 construct: His tag (N); made in house; host or cells: E. coli Rosetta-Gami B(DE3), pET15b
Experimental: (§1) Peptides were synthesized by using standard solid-phase synthesis protocol, using the BAL resin as anchoring for the C-terminal amines. Isothermal Titration Calorimetry (ITC) measurements were performed in a reverse fashion by titrating the protein into the ligand solution. Solution nuclear magnetic resonance (NMR) experiments were conducted on a 700 MHz Bruker Avance spectrometer equipped with a TCI cryoprobe. Each protein sample was dissolved into an NMR tube at a final concentration of 20 μM (1% DMSO-d6) in the presence of 20 μM of each compound.
The fragments were transformed into Rosetta-Gami B(DE3) competent cells and grown in LB medium at 37° C. with 100 μg/mL of ampicillin until reaching an OD600 of 0.6-0.7 followed by induction with 0.4 mM IPTG overnight at 20° C. Bacteria were then collected by centrifugation and lysed by sonication at 4° C. […] EphA4 LBD with ^13C^ε/^1H^ε-Met labeled was expressed like previously described but adding a suspension of 100 mg of ^13C^ε/^1H^ε-Methionine in 1 mL of DMSO per liter of LB medium, 10 minutes before induction. […] Transformation, expression, and purification of EphA3-LBD chimera was performed as described above for EphA4-LBD.
Isothermal titration calorimetry (ITC) measurements were performed using the Affinity ITC Autosampler from TA Instruments (New Castle, Del.). The titrations were performed in a reverse fashion by titrating the protein into the ligand solution. […] The syringe was filled with a 100 μM solution of EphA4-LBD, EphA3-LBD Chimera, or EphA2-LBD, and 20 injections of 2.5 μL each were performed into the cell containing a 20 μM solution of the compounds. The injections were made at 200 s or 400 s intervals with a stirring speed of 75 rpm. All the solutions were kept in the autosampler at 4° C. The analysis of the thermodynamics signatures and for dissociation constant determination was performed by the NanoAnalyze software (TA Instruments, New Castle, Del.) and subsequently exported into Microsoft Excel.

[2] = target: T2, ^13C^ε-Met-labeled EphA4-LBD (Homo sapiens, UniProt P54764, C204A); assay: 2D [13C,1H] HSQC NMR chemical shift perturbation of Met resonances; format: binding; settings: test ligands at 40 μM, EphA4-LDB at 20 μM; Table 2
T2 construct: His tag (N); made in house; host or cells: E. coli Rosetta-Gami B(DE3), pET15b
Experimental: as §1, with “Each protein sample was dissolved into an NMR tube at a final concentration of 20 μM (1% DMSO-d6) in the presence of 20 μM of each compound.” left out
2D [^13C,^1H] correlation NMR spectra measured with such protein targets, collected in absence or presence of test ligands can be used to monitor ligand binding and make, albeit qualitative, determinations on possible conformational changes induced by test ligands on the protein target. […] In targeting EphA4, an important aspect regarding the activity of its ligands is whether these agents could be predicted to work as antagonists or agonists.
NMR spectra were acquired on Bruker Avance III 700 MHz spectrometer equipped with a TCI cryoprobe. All NMR data were processed and analyzed using TOPSPIN 3.6.1 (Bruker, Billerica, Mass., USA).
Chemical shift changes (A) in the 2D [^13C, ^1H] spectra were calculated as weight average perturbations observed in the ^1H and ^13C dimensions using the following Equation: […]

SMILES | -TΔS [1] [kcal/mol] | AH [1] [kcal/mol] | Δδ ^13C^ϵ/^1H^ϵ Met 164 [2]
N=C(N)NCCCC[C@H](NC(=O)[C@H](Cc1ccc(-c2ccccc2)cc1)NC(=O)[C@H](Cc1c[nH]c2ccc(O)cc12)NC(=O)[C@@H]1CCC[C@@H](N)C1)C(N)=O [Compound E5] | 1.32 | -9.39 | −
N=C(N)NCCCC[C@H](NC(=O)[C@H](Cc1ccc(-c2ccccc2)cc1)NC(=O)[C@H](Cc1c[nH]c2ccc(O)cc12)NC(=O)[C@H]1CCC[C@H](N)C1)C(N)=O [Compound E6] | -0.67 | -8.10 | ++ (0.1 ppm < ++ <0.2 ppm)
